Among all 400,000 compounds or so, about 5,500 (1.4%) were called active. This list was built around the results that the source calls inconclusive (neither active nor inactive); the mix of calls is not that of the screen. Calls come from the whole dose curve; as a rule, active = well fitted cell-killing curve with a large enough effect; inconclusive = small, poorly fitted or top-dose-only effect, or effect the other way; inactive = flat fitted curve, though single readings scatter. Potencies of inconclusive entries are doubtful fits and often do not repeat.
assay: qHTS assay for MDR1-selective chemotherapeutics: Primary screen using the parental adenocarcinoma cell KB-3-1; conditions: KB-3-1 viability, CellTiter-Glo ATP luminescence, 72 h; activity change, negative = cytotoxic: at 46.1 µM (top of the series); note: nearly all actives have a fitted effect of over 60% in size
Procedure, shortened: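 Cytotoxicity measured as CellTiter-Glo luminescence after 72 h at 37 C. Compound titrations were pinned onto drug-naive KB-3-1 parental adenocarcinoma cells grown in DMEM with 10% FBS, and normalized data fitted to concentration-response curves.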
% is set by controls: 0 for no effect and ±100 for the full control effect; potency is the fitted concentration of half-maximal effect.

| SMILES | Potency | activity change, negative = cytotoxic |
| --- | --- | --- |
| CC(=O)Nc1cccc(OCc2cccc([N+](=O)[O-])c2)c1 | inconclusive: 11.6 µM [rising, partial curve] |  |
| COc1ccc(-c2c(-c3cc(OC)cc(OC)c3)n(C)c3ccc(-c4ccc5[nH]ccc5c4)cc23)cc1 | active: 23.1 µM |  |
| Cc1ccc(CNC(=O)C(C)n2nc(C)n3c(cc4sccc43)c2=O)cc1 (stereo unspecified) | inactive |  |
| CCCn1nnc(NC(=S)NC(=O)/C=C/c2ccco2)n1 |  | inconclusive: 3.48% |
| Cc1cc(C)cc(CC(=O)N2CCC2(C)C(=O)NS(=O)(=O)c2ccc(C#N)cc2)c1 (stereo unspecified) | inactive |  |
| Cc1ccc(-c2ccc(=O)n(CCC(=O)N3CCN(c4cccc(C)c4)C(C)C3)n2)cc1 (stereo unspecified) | inactive |  |
| Cc1cccc(NS(=O)(=O)c2ccc3c(c2)CC(C)N3C(=O)C2CCC2)c1C (stereo unspecified) | active: 23.1 µM |  |
| CCn1c(=O)c(C(=O)NC(C)c2ccccc2)c(O)c2ccccc21 (stereo unspecified) | inconclusive: 11.6 µM [cytotoxic, partial curve] |  |
| O=C(Nc1nnc(SCc2cccnc2)s1)C1CC(=O)N(c2ccccc2)C1 (stereo unspecified) | inconclusive: 29.1 µM [rising, partial curve, poor fit] |  |
| CN(Cc1ccccc1)C(=O)COC(=O)c1cc(NS(=O)(=O)c2cccs2)ccc1O | inactive |  |
| S=c1[nH]nc(COc2ccccc2)n1/N=C/c1ccncc1 | inactive |  |
| O=C(Nc1ccccc1Cc1ccccc1)c1ccccc1NS(=O)(=O)c1ccc(Cl)s1 | inconclusive: 20.6 µM [cytotoxic, single point] |  |
| COC(=O)c1ccc(Oc2ccc3nnc(C)n3n2)cc1 | inactive |  |
| O=C(Nc1ccccc1N1CCOCC1)c1ccc(Br)o1 | inconclusive: 25.9 µM [cytotoxic, single point] |  |
| CC(C)OCCCNC(=O)C1CC(=O)N(CCc2ccc(F)cc2)C1 (stereo unspecified) | inconclusive: 4.61 µM [rising, partial curve, poor fit] |  |
| CC1CN(S(=O)(=O)c2cccc3nsnc23)CC(C)O1 (stereo unspecified) | inconclusive: 4.11 µM [rising, full curve, poor fit] |  |
| Cc1ccc(Cn2c(C)c3cnn(CC(=O)NCc4ccccc4)c(=O)c3c2C)cc1 | active: 13 µM |  |
| CCN(CC)c1ccc(NC(=O)c2cnn(-c3ccccc3)c2-n2cccc2)c(C)c1 | inconclusive: 18.4 µM [cytotoxic, single point] |  |
| COC(=O)[C@@]12CCCCN1[C@H](c1ccc(-c3cc(C(C)=O)cs3)cc1)[C@H]1C(=O)N(C)C(=O)[C@H]12 | inconclusive: 20.6 µM [cytotoxic, partial curve, poor fit] |  |
| Cc1ccccc1OCc1nc2ccccc2c(=O)n1/N=C/c1cn[nH]c1-c1ccccc1 | inconclusive: 29.1 µM [cytotoxic, single point] |  |
| Cc1ccc(C(=O)CSc2nnc3c4ccccc4nc(C(C)(C)C)n23)cc1 | active: 23.1 µM |  |
| CN(CCC#N)C(=O)COC(=O)c1ccc2[nH]c3c(c2c1)CCCC3 | inconclusive: 18.4 µM [cytotoxic, single point] |  |

| SMILES | Potency | activity change, negative = cytotoxic |
| --- | --- | --- |
| Cc1ccccc1Cc1c(C)nc2c(C(=O)NCc3ccc4c(c3)OCO4)cnn2c1C | inactive |  |
| O=C(Nc1cccc2nsnc12)c1cccnc1Cl | inactive |  |
| CC(C(=O)c1ccc(-c2ccccc2)cc1)[n+]1ccccc1 (stereo unspecified) | inconclusive: 23.1 µM [cytotoxic, single point] |  |
| CC1CCN(S(=O)(=O)c2ccc(NC(=O)Cn3nnc(-c4ccccc4)n3)cc2)CC1 | inconclusive: 29.1 µM [cytotoxic, single point] |  |
| CC(C)CC(=O)NC(=S)NNC(=O)c1ccc(NC(=O)C2CCCCC2)cc1 | inconclusive: 16.4 µM [cytotoxic, single point] |  |
| CCC1CCCCN1CCCNC(=O)c1ccc2nc(N3CCCCC3)sc2c1 (stereo unspecified) | inconclusive: 29.1 µM [cytotoxic, single point] |  |
| Nc1ccc(CC(N)c2csc(Nc3nncc4ccccc34)n2)cc1 (stereo unspecified) | inconclusive: 20.6 µM [cytotoxic, single point] |  |
| CC[C@H](C)[C@@H]1NC(=O)[C@H]([C@@H](C)CC)NC(=O)[C@@H](CC(C)C)NC(=O)[C@H](Cc2ccccc2)NC(=O)[C@H](Cc2ccccc2)NC(=O)[C@@H]2CCCN2C(=O)[C@@H]2CCCN2C(=O)[C@H](C(C)C)NC(=O)[C@H](CC(C)C)NC1=O | inconclusive: 18.4 µM [cytotoxic, single point] |  |
| Nc1nc(=S)c2ncn(C3CCCCC3)c2[nH]1 | inactive |  |
| COC(=O)N/N=C\c1c(C)nn(-c2ccccc2)c1Cl | inactive |  |
| Cc1ccc(NC(=S)Nc2ccc(OC(F)F)c(Cl)c2)cc1F | inconclusive: 20.6 µM [cytotoxic, single point] |  |
| CO/N=C/C(=N\Nc1ccc(C)cc1)C(=O)c1ccc(OC)cc1 | active: 5.17 µM |  |
| O=C(Nc1ccc(Cc2ccncc2)cc1)c1ccc(Cl)c([N+](=O)[O-])c1 | inconclusive: 11.6 µM [cytotoxic, partial curve, poor fit] |  |
| COc1ccc(NS(=O)(=O)c2ccc(N3CCOCC3)c(NC(=O)c3cccc(F)c3)c2)cc1 | inconclusive: 9.2 µM [cytotoxic, partial curve] |  |
| Cc1ccc(-c2cc(C(=O)Oc3ccc(C#N)cc3)no2)cc1 | inactive |  |
| Cc1ccc(NC2=Nc3ccccc3N3C2=Nc2c(c(C)nn2-c2ccccc2)C3c2ccc(O)c(O)c2)cc1 (stereo unspecified) | inconclusive: 18.4 µM [cytotoxic, single point] |  |
| CN(C)CCCN(C(=O)/C=C/c1cccs1)c1nc2ccc(F)cc2s1 | active: 20.6 µM |  |
| Cc1cccc(C(=O)NNC(=O)c2c(-c3ccccc3Cl)noc2C)c1O | inconclusive: 16.4 µM [cytotoxic, single point] |  |
| O=C(N/N=C/c1cccc(F)c1)c1cc(-c2ccco2)nc2ccccc12 | inconclusive: 29.1 µM [cytotoxic, single point] |  |
| COC(=O)c1[nH]c2c(c1C)C(=O)CC(c1cccs1)C2 (stereo unspecified) | inconclusive: 18.4 µM [cytotoxic, partial curve, poor fit] |  |
| CC(=O)Nc1cccc(C(=O)Nc2cccnc2)c1 | inconclusive: 16.4 µM [rising, single point] |  |
| O=C(NCc1cccc(C(F)(F)F)c1)c1[nH]c(C(F)(F)F)nc1-c1ccccc1 | inactive |  |

An excerpt from above in order of SMILES length, ascending:

| SMILES | Potency | activity change, negative = cytotoxic |
| --- | --- | --- |
| COC(=O)c1ccc(Oc2ccc3nnc(C)n3n2)cc1 | inactive |  |
| CCC1CCCCN1CCCNC(=O)c1ccc2nc(N3CCCCC3)sc2c1 (stereo unspecified) | inconclusive: 29.1 µM [cytotoxic, single point] |  |
| Cc1ccc(NC2=Nc3ccccc3N3C2=Nc2c(c(C)nn2-c2ccccc2)C3c2ccc(O)c(O)c2)cc1 (stereo unspecified) | inconclusive: 18.4 µM [cytotoxic, single point] |  |

Next part

| SMILES | Potency | activity change, negative = cytotoxic |
| --- | --- | --- |
| CC1CCCC(C)N1C(=O)CSCc1ccc(Cl)cc1 (stereo unspecified) | inconclusive: 32.6 µM [cytotoxic, partial curve, poor fit] |  |
| CCCNC(=O)[C@@H]1CCCN1C(=O)C1CCN(S(=O)(=O)c2ccc(C)cc2)CC1 |  | inconclusive: -53.3% |
| Cc1nn(Cc2ccc(Cl)c(Cl)c2)c(C)c1NC(=O)c1cc(CC(C)C)on1 | inconclusive: 20.6 µM [cytotoxic, single point] |  |
| COc1cc(C(=O)NC(=S)NNC(=O)c2ccc3c(c2)OCO3)cc(OC)c1OC | inconclusive: 20.6 µM [cytotoxic, single point] |  |
| CCc1nc(N2CCN(C(=O)c3ccccc3)CC2)c(C#N)c2c1COC(C)(C)C2 | inconclusive: 25.9 µM [cytotoxic, single point] |  |
| Cc1cccc(CNC(=O)C2CCC(CNS(=O)(=O)c3ccc4c(c3)CCCC(=O)N4)CC2)c1 (stereo unspecified) | inactive |  |
| O=C(Nc1nc2ccc(F)cc2s1)c1ccc([N+](=O)[O-])o1 |  | inconclusive: -64.9% |
| CC1=C(C(=O)OCC2CCCO2)C(c2cccc(C(F)(F)F)c2)C2=C(CC(c3ccco3)CC2=O)N1 (stereo unspecified) | active: 15.8 µM |  |
| Cc1ccn2c(CNCC3OCCc4ccccc43)c(C(=O)N3CCCCCC3)nc2c1 (stereo unspecified) | inactive |  |
| CC(C)=CCC1=C(OCC(=O)O)C(=O)c2ccccc2C1=O | inconclusive: 29.1 µM [cytotoxic, single point] |  |
| O=C(c1ccc2ncsc2c1)N1CCN(c2nc3ccccc3s2)CC1 | inconclusive: 5.8 µM [cytotoxic, partial curve, poor fit] |  |
| CC1=CC2=NC(=O)/C(=C\c3ccc(-c4cccc(Cl)c4)o3)C(=N)N2O1 | active: 4.11 µM |  |
| Cc1ccc(S(=O)(=O)c2ccc([N+](=O)[O-])cn2)cc1 | active: 6.51 µM |  |
| CCOC(=O)/C(=C/c1c2ccccc2cc2ccccc12)NC(=O)c1ccccc1 | inconclusive: 29.1 µM [cytotoxic, single point] |  |
| O=C(Nc1ccc(Cl)cc1)C1Cc2c(-c3ccc4c(c3)OCO4)ccnc2O1 (stereo unspecified) | inconclusive: 29.1 µM [cytotoxic, single point] |  |
| Cc1cccc(C)c1NC(=O)c1ccc2c(c1)nnn2C1CCCC1 | inconclusive: 32.6 µM [cytotoxic, single point] |  |
| CCN1CCN(Cc2ccc(NC(=O)c3cc(NC(=O)N4CCNC4=O)cc(OC)c3)cc2C(F)(F)F)CC1 |  | inconclusive: 1.26% |
| Cc1ccccc1C1CC(c2ccccc2)Nc2ncnn21 (stereo unspecified) | inconclusive: 29.1 µM [cytotoxic, single point] |  |
| COc1ccc(NC(=O)c2cc(C)n(Cc3cccs3)c2C)cc1 | inconclusive: 20.6 µM [cytotoxic, single point] |  |
| COc1ccc(CN(C(=S)Nc2ccccc2)C2CC(=O)N(c3ccc(Cl)cc3)C2=O)cc1 (stereo unspecified) | inconclusive: 29.1 µM [cytotoxic, single point] |  |
| FC(F)(F)c1ccc(CN2C[C@@H]3C(c4ccccc4)C4(c5cccnc5)CC3(C4)[C@H]2c2ccccc2)cc1 (stereo partly specified) | inconclusive: 20.6 µM [cytotoxic, single point] |  |
| COc1ccc(C2CC(=O)Nc3c2c(=O)[nH]c2nc4ccccc4n32)cc1 (stereo unspecified) | inconclusive: 0.411 µM [cytotoxic, full curve, poor fit] |  |

Source: PubChem BioAssay AID1347075 (National Center for Advancing Translational Sciences (NCATS), 2019)
